The target in the assay is GST-tagged Thbd protein (UniProt P15306). Description: pull-down; GST-tagged Thbd on GSH-agarose in binding buffer (50 mM Tris/HCl, 150 mM NaCl, 1 mM EDTA, 0.5% NP40, 10% glycerol, pH 7.4); incubated with Flag-tagged TFPI from HEK293T at 4 °C for 2 h; washed 3 times, Western blot; only the target purified. On the technique in general: A western blot detects proteins with antibodies after separation by electrophoresis.

Chains of the proteins cited; added tags and fusions are not shown. Lines headed by an entry give the natural chain unless they say otherwise; changes in a name come on top. Residues count along the entry.
UniProt P15306: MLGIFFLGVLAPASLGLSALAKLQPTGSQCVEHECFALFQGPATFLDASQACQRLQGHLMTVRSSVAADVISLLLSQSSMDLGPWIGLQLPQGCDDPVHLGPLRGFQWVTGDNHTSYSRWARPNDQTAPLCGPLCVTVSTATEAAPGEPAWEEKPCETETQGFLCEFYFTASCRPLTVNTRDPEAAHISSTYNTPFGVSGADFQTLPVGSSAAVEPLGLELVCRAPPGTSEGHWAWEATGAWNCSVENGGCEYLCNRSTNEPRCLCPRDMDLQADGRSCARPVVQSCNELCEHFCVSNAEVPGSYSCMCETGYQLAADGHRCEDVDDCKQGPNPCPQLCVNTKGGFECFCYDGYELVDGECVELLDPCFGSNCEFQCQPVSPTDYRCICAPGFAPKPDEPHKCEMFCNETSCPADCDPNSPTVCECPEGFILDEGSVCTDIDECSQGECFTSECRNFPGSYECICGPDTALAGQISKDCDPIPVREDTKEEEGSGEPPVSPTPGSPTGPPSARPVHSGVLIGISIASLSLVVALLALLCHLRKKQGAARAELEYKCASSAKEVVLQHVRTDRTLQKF
UniProt O54819, residues 29-306: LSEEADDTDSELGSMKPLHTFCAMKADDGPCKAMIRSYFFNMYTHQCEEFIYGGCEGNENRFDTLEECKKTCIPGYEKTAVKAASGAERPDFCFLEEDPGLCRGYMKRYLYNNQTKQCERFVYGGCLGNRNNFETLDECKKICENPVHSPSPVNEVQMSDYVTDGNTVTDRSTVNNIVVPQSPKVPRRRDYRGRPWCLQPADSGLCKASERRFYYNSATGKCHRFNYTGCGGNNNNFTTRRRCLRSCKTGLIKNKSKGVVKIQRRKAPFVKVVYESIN

No constants are given. Whether binding was seen depends on the method and setting. Binding seen in cells or lysates may run through a third protein. Binding calls can cover weak binding; strength is not graded here.

For the substance “Flag-tagged TFPI (tissue factor pathway inhibitor) (from UniProt O54819 29-306)”, the binding result is on record as “binds”.

The values above are taken from article PMC11087540.
